Source: US9314383B2, “Absorptive article” (UNICHARM CORPORATION, priority 2012, dated 2016)

Assay: Absorbent body migration rate
Details: after second dropping of horse EDTA blood; agent coated about 5 g/m^2

SMILES | Absorbent body migration rate [s]
CCCCCCCCCCCC(=O)OCC(O)CO (stereo not drawn) [90-L2 Lauric acid monoglyceride, lauric acid monoglyceride] | 7
CC(C)CCCCCCCCCCCCCCCOC(=O)CC(O)C(=O)OCCCCCCCCCCCCCCCC(C)C (stereo not drawn) [Diisostearyl malate] | 8
CCCCCCCCOC(=O)CCCCC(=O)OCCCCCCCC [Dioctyl adipate] | 6
CCCCCCCCCCCCOC(=O)CCCCCCCCCCC [ELECTOL WE20, Ester of dodecanoic acid (C12) and dodecyl alcohol (C12)] | 5
CCCCCCCCCCCCCC(=O)OCCCCCCCCCCCC [ELECTOL WE40, Ester of tetradecanoic acid (C14) and dodecyl alcohol (C12)] | 4
CCCCC(CC)C(=O)OCC(C)(C)COC(=O)C(CC)CCCC (stereo not drawn) [H-208BRS, Neopentyl glycol di(2-ethylhexanoate)] | 5
CCCCC(CC)C(=O)OCC(COC(=O)C(CC)CCCC)OC(=O)C(CC)CCCC (stereo not drawn) [PANACET 800B] | 3
CCCCCCCC(=O)OCC(COC(=O)CCCCCCC)OC(=O)CCCCCCC [PANACET 800] | 3
CCCCOC(=O)CC(CC(=O)OCCCC)(OC(C)=O)C(=O)OCCCC [Tributyl O-acetylcitrate] | 8
